# Measured values: article PMC4014422
# These are yes or no findings as the source states them, for the method shown. For some assays here: Binding seen in cells or lysates may run through a third protein. Some results given as binding are weak or reduced against the parent protein; the word gives no strength. For some assays here: Tags and fused reporters may be left off the sequences shown.
# T1: Sis1 (S. cerevisiae (endogenous in 74-D694 yeast)) (UniProt P25294)
# T1 sequence: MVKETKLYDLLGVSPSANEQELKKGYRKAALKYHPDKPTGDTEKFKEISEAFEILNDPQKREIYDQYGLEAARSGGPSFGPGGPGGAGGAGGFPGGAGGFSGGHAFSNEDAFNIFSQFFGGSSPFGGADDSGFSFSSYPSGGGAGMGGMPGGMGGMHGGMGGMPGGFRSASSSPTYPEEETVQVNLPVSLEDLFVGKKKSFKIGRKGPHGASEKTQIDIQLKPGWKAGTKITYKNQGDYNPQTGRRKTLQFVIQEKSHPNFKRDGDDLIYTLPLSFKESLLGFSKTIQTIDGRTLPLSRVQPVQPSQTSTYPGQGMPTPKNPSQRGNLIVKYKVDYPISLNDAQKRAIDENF
# T2: Rnq1 (S. cerevisiae (endogenous in 74-D694 yeast)) (UniProt P25367)
# T2 sequence: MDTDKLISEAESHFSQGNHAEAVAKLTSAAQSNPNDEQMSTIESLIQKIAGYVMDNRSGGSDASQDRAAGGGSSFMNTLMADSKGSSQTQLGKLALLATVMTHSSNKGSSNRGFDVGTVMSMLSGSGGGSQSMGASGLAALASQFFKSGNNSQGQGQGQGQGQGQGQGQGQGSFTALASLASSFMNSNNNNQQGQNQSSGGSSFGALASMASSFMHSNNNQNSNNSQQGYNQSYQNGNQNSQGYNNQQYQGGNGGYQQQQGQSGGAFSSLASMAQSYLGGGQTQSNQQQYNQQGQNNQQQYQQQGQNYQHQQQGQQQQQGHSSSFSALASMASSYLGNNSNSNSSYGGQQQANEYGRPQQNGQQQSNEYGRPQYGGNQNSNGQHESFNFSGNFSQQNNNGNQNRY
# B1: Rnq1 (protein, UniProt P25367 1-405)
# chain: T2 sequence
# B2: Rnq1(132-405) (domain or fragment, UniProt P25367 132-405)
# chain: SMGASGLAALASQFFKSGNNSQGQGQGQGQGQGQGQGQGQGSFTALASLASSFMNSNNNNQQGQNQSSGGSSFGALASMASSFMHSNNNQNSNNSQQGYNQSYQNGNQNSQGYNNQQYQGGNGGYQQQQGQSGGAFSSLASMAQSYLGGGQTQSNQQQYNQQGQNNQQQYQQQGQNYQHQQQGQQQQQGHSSSFSALASMASSYLGNNSNSNSSYGGQQQANEYGRPQQNGQQQSNEYGRPQYGGNQNSNGQHESFNFSGNFSQQNNNGNQNRY
# B3: HA-Rnq1 (protein, UniProt P25367 1-405)
# chain: T2 sequence
# B4: Rnq1-PFD (153-405) (domain or fragment, UniProt P25367 153-405)
# chain: QGQGQGQGQGQGQGQGQGQGSFTALASLASSFMNSNNNNQQGQNQSSGGSSFGALASMASSFMHSNNNQNSNNSQQGYNQSYQNGNQNSQGYNNQQYQGGNGGYQQQQGQSGGAFSSLASMAQSYLGGGQTQSNQQQYNQQGQNNQQQYQQQGQNYQHQQQGQQQQQGHSSSFSALASMASSYLGNNSNSNSSYGGQQQANEYGRPQQNGQQQSNEYGRPQYGGNQNSNGQHESFNFSGNFSQQNNNGNQNRY
# Key:
# [1] = target: T1, Sis1 (S. cerevisiae (endogenous in 74-D694 yeast)); assay: co-IP; Sis1 immunoprecipitated with αSis1 antibody and Protein G Sepharose from lysates of [RNQ+] yeast cells (s.d. low, s.d. medium, s.d. high, s.d. very high, m.d. high); 50 mM Tris pH 8, 150 mM NaCl, 1 mM EDTA, 0.2% Triton X-100; 4°C; immunoblot with αRnq1 and αSis1
# [2] = target: T1, Sis1 (S. cerevisiae (endogenous in 74-D694 yeast)); assay: co-IP; Sis1 immunoprecipitated with αSis1 antibody and Protein G Sepharose from lysates of [rnq−] yeast cells; 50 mM Tris pH 8, 150 mM NaCl, 1 mM EDTA, 0.2% Triton X-100; 4°C; immunoblot with αRnq1 and αSis1
# [3] = target: T2, Rnq1 (S. cerevisiae (endogenous in 74-D694 yeast)); assay: well-trap assay (joining assay); [RNQ+] yeast cells; construct induced 3 hrs in galactose; lysates in 2% SDS sample buffer at room temperature or 100°C, SDS-PAGE, blot with αRnq1; aggregated Rnq1 is retained in the wells when not boiled
# [4] = target: T2, Rnq1 (S. cerevisiae (endogenous in 74-D694 yeast)); assay: well-trap assay (joining assay); [rnq−] yeast cells; construct induced 3 hrs in galactose; lysates in 2% SDS sample buffer at room temperature or 100°C, SDS-PAGE, blot with αRnq1
Binder,binding [1],binding [2],binding [3],binding [4]
B1,binds,no binding (condition: in [rnq−] cells),–,–
B2,binds,no binding (condition: in [rnq−] cells),–,–
B3,–,–,binds,no binding (condition: in [rnq−] cells)
B4,–,–,binds,no binding (condition: in [rnq−] cells)
